# PubChem BioAssay AID504847 (National Center for Advancing Translational Sciences (NCATS), 2011)
# Chains of the proteins cited; added tags and fusions are not shown.
# UniProt P11473, whole entry, looked up: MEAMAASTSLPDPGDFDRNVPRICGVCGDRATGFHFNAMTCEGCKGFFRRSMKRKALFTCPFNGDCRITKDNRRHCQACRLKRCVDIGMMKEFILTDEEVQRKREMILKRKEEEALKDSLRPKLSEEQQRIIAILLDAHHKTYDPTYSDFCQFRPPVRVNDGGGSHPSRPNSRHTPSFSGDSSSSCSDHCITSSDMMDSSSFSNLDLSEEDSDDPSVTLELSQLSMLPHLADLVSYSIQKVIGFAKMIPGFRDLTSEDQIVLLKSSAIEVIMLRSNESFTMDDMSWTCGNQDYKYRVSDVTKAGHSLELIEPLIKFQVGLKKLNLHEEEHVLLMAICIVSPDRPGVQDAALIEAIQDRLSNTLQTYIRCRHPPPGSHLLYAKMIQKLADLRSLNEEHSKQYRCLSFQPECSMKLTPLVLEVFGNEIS
# Several values for one entry are separate records, joined by “and”; a condition that tells them apart may be missing. Identical values can stand only once. Screen size: about 400,000 compounds; about 3,700 (0.93%) were called active. Inconclusive means that the source gave no clear call. Such entries were picked first, then a sample of the others. The call rests on the fitted dose curve; in most records, active means well fitted inhibition curve with a large enough effect; inconclusive means small, poorly fitted or top-dose-only effect, or another doubt; inactive means no such curve, though single readings can be large or run the other way. Where the call is inconclusive, the potency comes from a doubtful curve fit.
# Target: Vitamin D3 receptor (Homo sapiens) (UniProt P11473)
# Test: Inhibitors of the vitamin D receptor (VDR): qHTS
# Settings: VDR-SRC2-3 peptide fluorescence polarization, 2 h; max response, negative = inhibition: active compounds read low
# Outline: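 Fluorescence polarization assay measuring small-molecule disruption of VDR binding to the coregulator peptide SRC2-3. Compounds were pin-transferred (23 nl) into the reagent mix and incubated 2 h at room temperature before reading.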
# On the % scale 0 is the no-effect control and ±100 the full control effect; potency means the concentration at half of the fitted maximal effect.
SMILES,Potency,"max response, negative = inhibition"
CCC(COC)Oc1cc(NCc2ccccc2)c2ncn(C(C)C)c2c1 (stereo not drawn),active: 22.4 µM,–
CCC(=O)c1c[nH]c(C(=O)NCc2cccs2)c1,–,inactive: 11.1%
Cc1nc(SCC(=O)c2ccccc2)c(C#N)c(-c2ccco2)c1C(=O)NCc1ccco1,"inconclusive: 100 µM [inhibitor, partial curve, poor fit]",–
N#CCCn1c(=O)c(-c2cccs2)nc2cnc(OCc3ccccc3)nc21,–,inactive: -2.76%
COc1cc(/C=C/C(=O)c2ccc3c(c2)OCCO3)cc(Br)c1OCC(=O)N(C)C,"inconclusive: 44.7 µM [inhibitor, partial curve, poor fit]",–
CC1(c2ccc(OC(F)F)cc2)NC(=O)N(CC(=O)Nc2ccc(N3CCCCC3)cc2)C1=O (stereo not drawn),–,inactive: -7.33%
NC(=O)C1=C(c2ccccc2)c2ccccc2C1=O,active: 39.8 µM,–
O=C(COC(=O)/C=C/C(=O)OCC(=O)NC12CC3CC(CC(C3)C1)C2)NC12CC3CC(CC(C3)C1)C2,"inconclusive: 11.2 µM [inhibitor, full curve, poor fit]",–
CC(=O)c1cccc(Nc2ccc(-c3ccccc3F)nn2)c1,–,inactive: -2.63%
CCOC(=O)c1c(CN(C)C)n(C)c2c(O)c(N=NC(N)=O)c3ccc(Br)cc3c12,"inconclusive: 39.8 µM [inhibitor, single point]",–
COC(=O)c1cc(Cl)c(NC(=O)C(C)C)cc1OC,–,inactive: -12.9%
O=C(NC(=S)Nc1ccc(N2CCOCC2)cc1)c1ccc2c(c1)OCCO2,"inconclusive: 39.8 µM [inhibitor, partial curve, poor fit]",–
COc1ccc(N(C)S(=O)(=O)c2cccc(C(=O)N3CCN(Cc4ccc5c(c4)OCO5)CC3)c2)cc1,"inconclusive: 100 µM [inhibitor, single point]",–
Cc1nn(CCC(N)=S)c2nc(-c3cccs3)cc(C(F)(F)F)c12,"inconclusive: 79.4 µM [inhibitor, single point]",–
CCCCC[C@H](O)C/C=C1/C(=O)C=C[C@@H]1C/C=C\CCCC(=O)O,active: 35.5 µM and active: 50.1 µM,–
O=C(/C(=C/c1ccccc1)n1cncn1)c1ccc(Cl)cc1Cl,active: 20 µM,–
O=C(O)c1cc(N/N=C/c2c(O)ccc3ccccc23)ccc1Cl,"inconclusive: 89.1 µM [inhibitor, partial curve, poor fit]",–
CC(C(=O)OCC(=O)c1ccccc1)N1C(=O)c2ccccc2C1=O (stereo not drawn),"inconclusive: 79.4 µM [inhibitor, single point]",–
O=C1C=C(c2ccc3cc[nH]c3c2)C[C@@H](c2ccc3c(c2)OCO3)C1,"inconclusive: 10 µM [inhibitor, partial curve, poor fit]",–
O=S(=O)(Nc1ccccc1Cl)c1ccc2[nH]c(=S)oc2c1,"inconclusive: 89.1 µM [inhibitor, single point]",–
O=C(NNC(=S)Nc1cccc(C(F)(F)F)c1)c1ccc(Cl)cc1Cl,"inconclusive: 89.1 µM [inhibitor, single point]",–
COc1cccc(/C=C2\SC(=S)N(CCCC(=O)N3CCCC3)C2=O)c1,"inconclusive: 79.4 µM [inhibitor, single point]",–
Cc1ccc(F)c(C2C3C=CCC(C)C3C(=O)N2Cc2ccccc2)c1 (stereo not drawn),"inconclusive: 89.1 µM [inhibitor, single point]",–

SMILES,Potency,"max response, negative = inhibition"
CCOC(=O)c1c(C)[nH]c(C)c1S(=O)(=O)N(C)CC(=O)NCc1ccc(Cl)cc1,–,inactive: -7.82%
Cc1ccc(-n2c(=O)c3c(cnn3C)n(Cc3ccc(Cl)cc3)c2=O)cc1,active: 89.1 µM,–
CC(C)(C)OC(=O)CNC(=O)c1[nH]cnc1C(=O)NC1CCN(C(=O)OC(C)(C)C)CC1,"inconclusive: 2.82 µM [inhibitor, partial curve, poor fit]",–
COc1cc(NC(=O)CSc2nnc3c4ccccc4n(C)c3n2)cc(OC)c1OC,–,inactive: 4.8%
O=C(Nc1nc(-c2ccco2)c(-c2ccco2)s1)c1ccco1,"inconclusive: 89.1 µM [inhibitor, single point]",–
CCn1c(=O)cc(SCC(=O)NCc2ccc(Cl)cc2)c2ccccc21,–,inactive: 2.9%
CCOc1ccc(NCc2cccn2-c2nnc(N3CCC(C(=O)NCCCN4C(C)CCCC4C)CC3)s2)cc1 (stereo not drawn),–,inactive: -13.2%
Cn1cccc1C(=O)N1CCC2(CC1)CCN(c1ncccn1)CC2,–,inactive: -13.9%
CCN(CC)Cc1c(C(=O)N/N=C/c2ccc(OCc3ccccc3C)cc2)nnn1-c1nonc1N,–,inactive: -14.8%
CCc1nnc(NC(=O)CSc2nc3[nH]c(=O)cc(O)c3s2)s1,–,inactive: -17.9%
COCCn1c(SCC(=O)Nc2ccc(F)cc2)nc2c([nH]c3ccccc32)c1=O,"inconclusive: 79.4 µM [inhibitor, single point]",–
CC(=O)O[C@]1(C(C)=O)CC[C@@H]2[C@@H]3C=C(C)C4=CC(=O)CC[C@@]4(C)[C@H]3CC[C@]21C,"inconclusive: 35.5 µM [inhibitor, single point]",–
O=c1oc2ccccc2c(N2CCCCC2)c1CN1CCCC1,–,inactive: -1.34%
COc1ccc(OC)c2sc(NNC(=O)C3COc4ccccc4O3)nc12 (stereo not drawn),–,inactive: -12.7%
CCOc1ccc(N=Cc2c(O)cc(C)oc2=O)cc1,–,inactive: -20.4%
CN(CC(=O)NCc1ccccc1)Cc1cccc(F)c1,"inconclusive: 89.1 µM [inhibitor, single point]",–
Cc1cc(Br)c(Cl)cc1NC(=O)CN1C(=O)C2C3CC(c4ccccc4)C(C3)C2C1=O (stereo not drawn),"inconclusive: 79.4 µM [inhibitor, single point]",–
Oc1ccc(N=Nc2ccccc2)o1,active: 89.1 µM,–
CC(C)CCn1c(N)c(S(=O)(=O)c2cccs2)c2nc3ccccc3nc21,"inconclusive: 56.2 µM [inhibitor, partial curve, poor fit]",–
C#CCOc1c(Cl)cc(/C=C2/C(=O)ON=C2C)cc1OCC,"inconclusive: 25.1 µM [inhibitor, full curve, poor fit]",–
O=C1N(CCCl)c2ccc(Br)cc2C12OCCO2,"inconclusive: 70.8 µM [inhibitor, partial curve]",–
COc1ccccc1-c1cc(C(F)(F)F)nc(S(=O)(=O)CCCC(=O)Nc2cc(Br)ccc2O)n1,"inconclusive: 28.2 µM [inhibitor, full curve]",–
Cc1ccc(OCC(=O)Nc2cc(C(=O)O)cc(C(=O)O)c2)cc1C,active: 17.8 µM,–

SMILES,Potency,"max response, negative = inhibition"
Cc1ccc(CNC(=O)[C@]2(C(F)(F)F)C[C@H](CCc3ccccc3)CCCO2)o1,"inconclusive: 89.1 µM [inhibitor, single point]",–
O=C(Nc1ccc(F)cc1)c1nc(S(=O)(=O)Cc2ccccc2)ncc1Cl,"inconclusive: 39.8 µM [inhibitor, partial curve, poor fit]",–
CCOc1ccc(C(=O)c2ccc(O)c(O)c2O)cc1,"inconclusive: 89.1 µM [inhibitor, single point]",–
Cc1ccc2nc(NCc3ccccc3Cl)c3nnnn3c2c1,–,inactive: -7.72%
O=C(CN1C(=O)CSc2ccc(S(=O)(=O)N3CCCCC3)cc21)NCc1ccc(F)cc1Cl,"inconclusive: 35.5 µM [inhibitor, single point]",–
O=C1CCC(C(=O)OCc2cc(Cl)ccc2OC(F)F)N1 (stereo not drawn),"inconclusive: 79.4 µM [inhibitor, partial curve, poor fit]",–
CC(C)Nc1nnc(SC(C)C(=O)Nc2ccc(N3CCOCC3)cc2)s1 (stereo not drawn),"inconclusive: 100 µM [inhibitor, partial curve, poor fit]",–
O=C(CC1SC(=O)N(c2ccccc2)C1=O)Nc1ccc(Cl)cc1 (stereo not drawn),active: 39.8 µM,–
CCN(C(=O)CSc1nc(C)nc2sc(C)c(C)c12)c1ccc(F)cc1,–,inactive: -9.37%
Cn1c(/C=C/c2ccc(Br)cc2)c([N+](=O)[O-])c(=O)n(C)c1=O,active: 50.1 µM,–
CCCCn1c(N)c(N(CC(C)C)C(=O)c2ccc(OCC3CCCO3)cc2)c(=O)[nH]c1=O (stereo not drawn),"inconclusive: 89.1 µM [inhibitor, partial curve, poor fit]",–
O=S(=O)(Cc1ccccc1)N(O)c1ccccc1,active: 39.8 µM,–
Cc1ccccc1-c1c(C)oc2cc(O)ccc2c1=O,–,inactive: -2.3%
COc1cccc(C2/C(=C(\O)c3ccc4c(c3)OCCO4)C(=O)C(=O)N2CC2CCCO2)c1 (stereo not drawn),–,inactive: -5.29%
C[C@]12c3[nH]c4cc(-c5ccco5)ccc4c3CCN1C(=O)[C@@H](CC(=O)NCc1cccc(C(F)(F)F)c1)C[C@@H]2C(=O)N1CCOCC1,"inconclusive: 63.1 µM [inhibitor, partial curve, poor fit]",–
CCC(C)c1ccc(OCC(=O)Nc2ccc3[nH]c(=O)[nH]c3c2)cc1 (stereo not drawn),"inconclusive: 89.1 µM [inhibitor, single point]",–
CCOc1ccc(N2C(=O)CC(Cc3ccc(Br)cc3)C2=O)cc1 (stereo not drawn),–,inactive: -0.981%
COc1cccc(C(=O)Nc2sc3c(c2C#N)CCN(C(C)=O)C3)c1,active: 79.4 µM,–
COc1ccccc1CNc1ncnc2ccc(-c3cccnc3)cc12,–,inactive: -0.31%
COc1cccc(CNS(=O)(=O)c2cc(Br)cc3c2N(C(C)=O)C(C)C3)c1 (stereo not drawn),–,inactive: 0.732% and inactive: -19.9%
CCn1c(N2CCN(CC(=O)Nc3cccc(C)c3C)CC2)nc2ccccc21,–,inactive: 12%
CCC(C)Oc1cc(-c2ccnc(Nc3cccc(Cl)c3)n2)ccn1 (stereo not drawn),"inconclusive: 89.1 µM [inhibitor, single point]",–
